{"source": "PubChem BioAssay AID1259405 (NCATS, 2018)", "assay": "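Silenced genes that increase secreted GFP made by CHO cells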 (primary screen)", "cell system": "Chinese hamster CHO-K1 ovary cells with stable secreted eGFP expression", "reagents": "single siRNA against mouse genes, 0.8 pmol siRNA per well (2 µl of 400 nM stock)", "time to read-out": "3 days", "detection": "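Percent of the per-plate non-targeting control median for intracellular GFP per well by laser scanning cytometry and for cell viability by ATP luminescence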", "scale": "GFP, % of control: higher = more GFP per well, higher productivity; viability (ATP), % of control: higher = more viable cells (more ATP)", "active means": "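a knock-down is called active if GFP reaches 120% or more of non-targeting control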", "note": "The whole screen tested about 50,000 reagents; this is a random part of them. About 4,000 of them (8%) were called active. 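Mouse siRNA library applied to hamster cells; one well for each siRNA.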 The numbers tell different reagents against one gene apart."}
The first 2 entries as a preview:
{"target gene":"Serpinh1","reagent no.":1,"GFP, % of control":63.9,"viability (ATP), % of control":108,"Outcome":"inactive"}
{"target gene":"Serpinh1","reagent no.":2,"GFP, % of control":88.5,"viability (ATP), % of control":114,"Outcome":"inactive"}

Results, repeating the preview:
{"target gene":"Serpinh1","reagent no.":1,"GFP, % of control":63.9,"viability (ATP), % of control":108,"Outcome":"inactive"}
{"target gene":"Serpinh1","reagent no.":2,"GFP, % of control":88.5,"viability (ATP), % of control":114,"Outcome":"inactive"}
{"target gene":"Serpinh1","reagent no.":3,"GFP, % of control":77.7,"viability (ATP), % of control":85.8,"Outcome":"inactive"}
{"target gene":"Tert","reagent no.":1,"GFP, % of control":98.1,"viability (ATP), % of control":79.8,"Outcome":"inactive"}
{"target gene":"Tert","reagent no.":2,"GFP, % of control":56.6,"viability (ATP), % of control":73.2,"Outcome":"inactive"}
{"target gene":"Spaca6","reagent no.":1,"GFP, % of control":106,"viability (ATP), % of control":125,"Outcome":"inactive"}
{"target gene":"Spaca6","reagent no.":2,"GFP, % of control":71.3,"viability (ATP), % of control":53.7,"Outcome":"inactive"}
{"target gene":"Spaca6","reagent no.":3,"GFP, % of control":88.9,"viability (ATP), % of control":83.2,"Outcome":"inactive"}
{"target gene":"Or10d5j","reagent no.":1,"GFP, % of control":69.6,"viability (ATP), % of control":74,"Outcome":"inactive"}
{"target gene":"Or10d5j","reagent no.":2,"GFP, % of control":98.3,"viability (ATP), % of control":85.1,"Outcome":"inactive"}
{"target gene":"Or10d5j","reagent no.":3,"GFP, % of control":54.6,"viability (ATP), % of control":58.3,"Outcome":"inactive"}
{"target gene":"Arhgap30","reagent no.":1,"GFP, % of control":62.9,"viability (ATP), % of control":99,"Outcome":"inactive"}
{"target gene":"Arhgap30","reagent no.":2,"GFP, % of control":70.5,"viability (ATP), % of control":61,"Outcome":"inactive"}
{"target gene":"Arhgap30","reagent no.":3,"GFP, % of control":30.2,"viability (ATP), % of control":37.5,"Outcome":"inactive"}
{"target gene":"Ubap2","reagent no.":1,"GFP, % of control":79,"viability (ATP), % of control":96.5,"Outcome":"inactive"}
{"target gene":"Ubap2","reagent no.":2,"GFP, % of control":78.4,"viability (ATP), % of control":85.4,"Outcome":"inactive"}
{"target gene":"Ubap2","reagent no.":3,"GFP, % of control":93.7,"viability (ATP), % of control":99.6,"Outcome":"inactive"}
